Laboratory results as given in patent US4666889A, “Method for combatting viral infections” (Fujisawa Pharmaceutical Co., Ltd., priority 1983, dated 1987).
Like-named read-outs stand apart in the source and are kept apart here. Part of at least one peptide drawing is inferred or uncertain, most often the ends. Starred links: 1 amine or outer side, 2 acyl side, 3 side chain; linkers in the order of their positions; H or OH if unused. Non-standard residues stand in square brackets, D forms with d. Residues, ends and D or L forms follow the SMILES beside them. *: point of attachment. d(γGlu) = O=C(O)[C@@H](CCC(=O)[*:2])N[*:1]; Stearoyl = CCCCCCCCCCCCCCCCCC(=O)*; Octanoyl = CCCCCCCC(=O)*

What was measured:
Format in all cases: in vivo
[1] = test system: herpes simplex type 1 virus (Miyama strain); assay: Effects in herpes simplex virus-infected mice (Test 3, treatment before and after infection); conditions: ICR mice, 1.0×10^5 pfu i.p., 20 days observation
[2] = test system: herpes simplex type 1 virus (Miyama strain); assay: Effects in herpes simplex virus-infected mice (Test 2, treatment after infection); conditions: ICR mice, 1.0×10^3 pfu/mouse i.p., 1-4 days after infection, 14 days observation
[3] = test system: influenza virus APR/8; conditions: ICR mice, oral, 14 days observation
[4] = oral 0.01 mg/kg, 6, 5, 2, 1 day before and 1, 2 days after infection
[5] = oral 0.1 mg/kg, 6, 5, 2, 1 day before and 1, 2 days after infection
[6] = oral 1 mg/kg, 6, 5, 2, 1 day before and 1, 2 days after infection
[7] = oral 10 mg/kg, 6, 5, 2, 1 day before and 1, 2 days after infection
[8] = subcutaneous 0.01 mg/kg, 6, 5, 2, 1 day before and 1, 2 days after infection
[9] = subcutaneous 0.1 mg/kg, 6, 5, 2, 1 day before and 1, 2 days after infection
[10] = subcutaneous 1 mg/kg, 6, 5, 2, 1 day before and 1, 2 days after infection
[11] = subcutaneous 10 mg/kg, 6, 5, 2, 1 day before and 1, 2 days after infection

## CCCCCCCCCCCCCCCCCC(=O)N[C@H](CCC(=O)N[C@@H](CCCCN)C(=O)N[C@H](C)C(=O)O)C(=O)O [Compound (3)] ({Stearoyl-d(γGlu)}-Lys-[dA]-OH)
[1]; [4]
  Survival rate (%) Oral: 30%
[1]; [5]
  Survival rate (%) Oral: 35%
[1]; [6]
  Survival rate (%) Oral: 55%
[1]; [7]
  Survival rate (%) Oral: 75%
[1]; [8]
  Survival rate (%) Subcutaneous: 10%
[1]; [9]
  Survival rate (%) Subcutaneous: 25%
[1]; [10]
  Survival rate (%) Subcutaneous: 20%
[1]; [11]
  Survival rate (%) Subcutaneous: 90%

## CCCCCCCC(=O)N[C@H](CCC(=O)N[C@@H](CCCCN)C(=O)N[C@H](C)C(=O)O)C(=O)O [Compound (4)] ({Octanoyl-d(γGlu)}-Lys-[dA]-OH)
[1]; [4]
  Survival rate (%) Oral: 55%
[1]; [5]
  Survival rate (%) Oral: 65%
[1]; [6]
  Survival rate (%) Oral: 80%
[1]; [7]
  Survival rate (%) Oral: 40%
[1]; [8]
  Survival rate (%) Subcutaneous: 35%
[1]; [9]
  Survival rate (%) Subcutaneous: 35%
[1]; [10]
  Survival rate (%) Subcutaneous: 90%
[1]; [11]
  Survival rate (%) Subcutaneous: 55%

## CCCCCCC(=O)N[C@H](CCC(=O)N[C@@H](CCC[C@@H](N)C(=O)O)C(=O)N[C@H](C)C(=O)O)C(=O)O [Compound (1)]
[2]; oral 0.1 mg/kg
  Survival rate: 50%
[2]; oral 1 mg/kg
  Survival rate: 60%
[2]; subcutaneous 0.1 mg/kg
  Survival rate: 40%
[2]; subcutaneous 1 mg/kg
  Survival rate: 90%
[3]; 0.01 mg/kg, 3 times after infection (1, 2, 3 days)
  Survival rate: 20.0%
[3]; 0.01 mg/kg, 4 times before infection (6, 5, 4, 1 day), n = 7
  Survival rate: 28.6%
[3]; 1 mg/kg, 3 times after infection (1, 2, 3 days)
  Survival rate: 60.0%
[3]; 1 mg/kg, 4 times before infection (6, 5, 4, 1 day)
  Survival rate: 40.0%

## C[C@H](NC(=O)[C@@H](C)O)C(=O)N[C@H](CCC(=O)N[C@@H](CCC[C@@H](N)C(=O)O)C(=O)NCC(=O)O)C(=O)O [Compound (2)]
[2]; subcutaneous 0.1 mg/kg
  Survival rate: 40%
[2]; subcutaneous 1 mg/kg
  Survival rate: 60%
